Data on one substance can be found in PMC8899575.

Chains of the proteins cited; added tags and fusions are not shown.
UniProt O09106: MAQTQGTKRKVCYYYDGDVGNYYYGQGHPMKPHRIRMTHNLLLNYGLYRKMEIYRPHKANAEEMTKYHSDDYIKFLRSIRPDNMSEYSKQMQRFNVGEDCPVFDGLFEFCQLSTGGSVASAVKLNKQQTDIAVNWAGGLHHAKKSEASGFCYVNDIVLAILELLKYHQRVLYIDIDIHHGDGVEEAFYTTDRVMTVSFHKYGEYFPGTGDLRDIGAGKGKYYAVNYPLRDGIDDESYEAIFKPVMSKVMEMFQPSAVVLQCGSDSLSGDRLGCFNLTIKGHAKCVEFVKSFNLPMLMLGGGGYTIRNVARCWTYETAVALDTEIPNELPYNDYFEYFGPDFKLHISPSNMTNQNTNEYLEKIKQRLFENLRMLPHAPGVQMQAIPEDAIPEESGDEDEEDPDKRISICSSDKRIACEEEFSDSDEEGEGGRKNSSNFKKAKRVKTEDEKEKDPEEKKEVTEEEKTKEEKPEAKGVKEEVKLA
UniProt P23804: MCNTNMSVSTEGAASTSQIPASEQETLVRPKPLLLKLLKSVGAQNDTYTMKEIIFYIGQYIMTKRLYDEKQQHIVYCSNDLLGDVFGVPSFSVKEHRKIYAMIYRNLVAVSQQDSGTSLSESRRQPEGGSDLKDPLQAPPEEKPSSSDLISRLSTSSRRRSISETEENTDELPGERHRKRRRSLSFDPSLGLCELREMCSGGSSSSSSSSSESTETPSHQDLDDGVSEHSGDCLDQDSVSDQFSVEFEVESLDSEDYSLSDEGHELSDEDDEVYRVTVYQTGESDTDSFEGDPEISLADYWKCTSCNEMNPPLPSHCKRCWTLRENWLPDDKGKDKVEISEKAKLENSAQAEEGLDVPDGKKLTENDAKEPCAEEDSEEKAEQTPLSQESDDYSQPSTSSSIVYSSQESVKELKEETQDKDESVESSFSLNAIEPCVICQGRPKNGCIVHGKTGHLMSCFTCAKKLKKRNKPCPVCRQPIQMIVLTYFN

This test deals with histone deacetylase 1 (HDAC1), endogenous (mouse (endogenous in liver)) (UniProt O09106). Description: co-IP; endogenous proteins in mouse liver lysates (Rack1 F/F and Rack1 Δhep livers for HDAC1-MDM2); IP with an anti-HDAC1 or an anti-RACK1 antibody, control rabbit IgG; immunoblotting.

No constants are given. Whether binding was seen depends on the method and setting. In cells and extracts the contact can be indirect. Some results given as binding are weak or reduced against the parent protein; the word gives no strength.

In the case of “mouse double minute 2 (MDM2), endogenous (from UniProt P23804 1-489)”, the binding entry is “binds”.
